Data on one molecule can be found in patent publication US20180355045A1 (LIMITED LIABILITY COMPANY ONCOMAX LLC ONCOMAX, published 2018).

The chains behind the UniProt entries cited, without tags or fusion partners. Where a name states a change or a piece, a line headed by the entry shows the natural chain unless it says otherwise. A line that says so, or that is headed by a name, gives the form on record, which may keep a tag or linker. Residues count along the entry.
recombinant human FGFR1 antigen PA-269#37 (P11362, residues 142-365): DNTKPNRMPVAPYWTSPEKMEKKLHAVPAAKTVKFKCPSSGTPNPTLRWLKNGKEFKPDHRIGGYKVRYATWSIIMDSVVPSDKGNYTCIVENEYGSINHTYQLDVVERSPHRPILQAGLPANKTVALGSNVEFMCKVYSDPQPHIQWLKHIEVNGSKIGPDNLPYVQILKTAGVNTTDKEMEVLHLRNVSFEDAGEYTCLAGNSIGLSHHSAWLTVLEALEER
commercial recombinant human FGFR1 (Sino Biologicals ref #10616-H08H) (P11362, form named): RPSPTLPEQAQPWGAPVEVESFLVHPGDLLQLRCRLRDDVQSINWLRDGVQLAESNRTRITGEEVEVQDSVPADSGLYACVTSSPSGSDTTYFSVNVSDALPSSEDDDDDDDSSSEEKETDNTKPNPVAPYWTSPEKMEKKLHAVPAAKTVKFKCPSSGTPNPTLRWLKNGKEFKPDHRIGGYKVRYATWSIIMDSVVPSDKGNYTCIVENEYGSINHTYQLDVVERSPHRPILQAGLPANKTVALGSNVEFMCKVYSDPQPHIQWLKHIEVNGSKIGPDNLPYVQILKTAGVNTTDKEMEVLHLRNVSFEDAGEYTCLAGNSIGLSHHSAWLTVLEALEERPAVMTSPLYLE

Results are given in words; binding and its absence hold for the method and conditions named. Some results given as binding are weak or reduced against the parent protein; the word gives no strength.

The target in assay [1] is recombinant human FGFR1 antigen PA-269#37 (human) (UniProt P11362). Description: ELISA, antigen coated on the plate.
Assay [2] concerns the target commercial recombinant human FGFR1 (Sino Biologicals ref #10616-H08H) (human) (UniProt P11362). Description: ELISA, antigen coated on the plate.

B1: humanized anti-FGFR1 antibody OM-RCA-01 (VH3/VL5) (antibody, human IgG1, kappa, V domains shown)
VH: QVQLQESGPGLVKPSQTLSLTCTVSGYSITSDYAWSWIRQHPGKGLEWIGYITYSGTTYYNPSLKSRVTISVDTSKNQFSLKLSSVTAADTAVYYCARDGNYFDYWGQGTLVTVSS
VL: DIQLTQSPSFLSASVGDRVTITCRASSSVSSSYLHWYQQKPGKAPKLLIYRTSTLQSGVPSRFSGSGSGTEFTLTISSLQPEDFATYYCQQWSGYPLTFGGGTKVEIKR
notes: Human IgG1 (IGHG1*03) / kappa; also called VH3A/L5; OM1
As for B1, the binding result in assay [1] and in assay [2] was “binds” each time.
